Reference: patent US20210363232A1
These are yes or no findings as the source states them, for the method shown. Some results given as binding are weak or reduced against the parent protein; the word gives no strength.

Target: T1, Cyno IL-34 (cyno (cynomolgus monkey)) (UniProt G7Q1L3)
T1 sequence: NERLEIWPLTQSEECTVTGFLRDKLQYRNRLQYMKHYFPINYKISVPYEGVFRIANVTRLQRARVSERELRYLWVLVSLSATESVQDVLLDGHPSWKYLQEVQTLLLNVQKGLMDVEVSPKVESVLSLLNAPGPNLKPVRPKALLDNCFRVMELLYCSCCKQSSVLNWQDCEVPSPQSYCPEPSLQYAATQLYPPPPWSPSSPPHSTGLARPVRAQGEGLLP
Experiment: MSD solution equilibrium titration at 37 C (Table 3)

binding: binds
B1: Antibody 1 (antibody, human IgG4 S228P, kappa, F234A L235A, V domains shown)
VH: EVQLLESGGGLVQPGGSLRLSCAASGFTFSSYATSWVRQAPGKGLEWVSAISHSGRSTYYADSVKGRFTISRDNSKNTLYLQMNSLRAEDTAVYYCARGRSSLDTWGQGTLVTVSS
VL: EIVLTQSPGTLSLSPGERATLSCRASQSISSAYLAWYQQKPGQAPRLLIYASSIRPTGIPDRFSGSGSGTDFTLTISPLEPEDFAVYYCSQYGDSLSFGGGTKVEIKR
